# Measured values from PubChem BioAssay AID686978 (National Center for Advancing Translational Sciences (NCATS), 2013).
# About 64,000 (15%) of roughly 420,000 compounds were called active. These results got no clear call from the source, so the numbers are uncertain. Calls come from the whole dose curve; as a rule, active = well fitted inhibition curve with a large enough effect; inconclusive = small, poorly fitted or top-dose-only effect; inactive = flat fitted curve, though single readings scatter.
# Test: qHTS for Inhibitors of human tyrosyl-DNA phosphodiesterase 1 (TDP1): qHTS in cells in absence of CPT; note: nearly all actives have a fitted effect of over 55% in size
# Details: DT40 Tdp1-/- hTDP1 cells, no CPT, ATP luminescence, 48 h
# Potency is the fitted concentration of half-maximal effect.
row,Structure (SMILES),Potency
1,CCOC(=O)c1ccc(NP(C)(=O)Oc2ccc(OC)cc2)cc1 (stereo not given),inconclusive: 23.1 µM
2,Cc1cccc(C)c1OP(C)(=O)Nc1ccc(SC(F)(F)F)cc1 (stereo not given),inconclusive: 16.4 µM
3,Cc1cc(C)cc(OP(C)(=O)Nc2ccc(SC(F)(F)F)cc2)c1 (stereo not given),inconclusive: 29.1 µM
4,COc1ccccc1OP(C)(=O)Nc1ccc(C)cc1 (stereo not given),inconclusive: 29.1 µM
5,Cc1ccc(NP(C)(=O)Oc2ccccc2)c(C)c1 (stereo not given),inconclusive: 16.4 µM
6,CCOC(=O)c1ccc(NP(C)(=O)Oc2ccccc2)cc1 (stereo not given),inconclusive: 16.4 µM
7,CC(C)(C)c1ccc(OP(C)(=O)Nc2ccc(SC(F)(F)F)cc2)cc1 (stereo not given),inconclusive: 29.1 µM
8,O=[N+]([O-])c1cccc([N+](=O)[O-])c1,inconclusive: 30.6 µM
9,CP(=O)(Nc1cccc(Br)c1)Oc1ccccc1 (stereo not given),inconclusive: 32.6 µM
10,CCOC(=O)c1ccc(NP(C)(=O)Oc2cc(C)cc(C)c2)cc1 (stereo not given),inconclusive: 25.9 µM
11,CN(Cc1cccnc1)C(=O)COc1ccc(Cl)c(Cl)c1.O=[N+]([O-])c1cc([N+](=O)[O-])c(O)c([N+](=O)[O-])c1,inconclusive: 20.6 µM
12,CN1CCCCC1COC(=O)C1(O)c2ccccc2CCc2ccccc21 (stereo not given),inconclusive: 6.51 µM
13,O=[N+]([O-])c1cc([N+](=O)[O-])c(Nc2nnnn2CCO)c([N+](=O)[O-])c1,inconclusive: 29.1 µM
14,Cc1cc(-c2cccc3ccccc23)c(C)cn1.O=[N+]([O-])c1cc([N+](=O)[O-])c(O)c([N+](=O)[O-])c1,inconclusive: 18.4 µM
15,COc1ccc(NP(C)(=O)Oc2ccccc2OC)cc1 (stereo not given),inconclusive: 29.1 µM
16,CP(=O)(Nc1ccc2c(c1)OCCO2)Oc1ccccc1 (stereo not given),inconclusive: 13 µM
17,CP(=O)(Nc1ccc(SC(F)(F)F)cc1)Oc1ccc(F)cc1 (stereo not given),inconclusive: 23.1 µM
18,O=C(OCCN1CCN(CCOCc2ccccc2)CC1)C(O)(c1ccccc1)c1ccccc1,inconclusive: 29.1 µM
19,CC(C)c1ccc(OP(C)(=O)Nc2ccc(SC(F)(F)F)cc2)cc1 (stereo not given),inconclusive: 20.6 µM
20,CCOC(=O)c1ccc(NP(C)(=O)Oc2ccc(F)cc2)cc1 (stereo not given),inconclusive: 1.3 µM
21,COc1ccc(OP(C)(=O)Nc2ccc(SC(F)(F)F)cc2)cc1 (stereo not given),inconclusive: 16.4 µM
22,COc1ccc(OP(C)(=O)Nc2ccc(Br)cc2)cc1 (stereo not given),inconclusive: 20.6 µM
23,O=C(OCCCN1CCCC1)C(O)(c1ccccc1)C1CCCCC1 (stereo not given),inconclusive: 5.8 µM
24,CCOC(=O)c1ccc(NP(C)(=O)Oc2ccc(Cl)cc2)cc1 (stereo not given),inconclusive: 32.6 µM
25,CP(=O)(OC12CC3CC(CC(C3)C1)C2)OC12CC3CC(CC(C3)C1)C2,inconclusive: 35.5 µM
